Assay results as given in PMC5642145, “Impact of the structures of macrocyclic Michael acceptors on covalent proteasome inhibition” (Chemical Science, 2017).
“Also recorded” adds a separate entry of the source.

Experiment: Reaction with excess thiophenol under neutral conditions
Conditions: excess of thiophenol in MeOH or DMSO

## CCCCCCCCCC(=O)N[C@@H](Cc1ccc(-c2ccccc2)cc1)C(=O)N[C@H]1/C=C/CNC(=O)/C=C/[C@H](C(C)C)NC1=O [analogue 14]
  reaction with thiophenol: did not react at all; also recorded: no reaction with PhSH
